The text below walks through data of paper PMC10816986, “The Role of Key Amino Acids of the Human Fe(II)/2OG-Dependent Dioxygenase ALKBH3 in Structural Dynamics and Repair Activity toward Methylated DNA” (International Journal of Molecular Sciences, 2024).

The series addresses T1, ALKBH3 Y143F (Homo sapiens) (UniProt Q96Q83).
T1 sequence (looked up, limits assumed): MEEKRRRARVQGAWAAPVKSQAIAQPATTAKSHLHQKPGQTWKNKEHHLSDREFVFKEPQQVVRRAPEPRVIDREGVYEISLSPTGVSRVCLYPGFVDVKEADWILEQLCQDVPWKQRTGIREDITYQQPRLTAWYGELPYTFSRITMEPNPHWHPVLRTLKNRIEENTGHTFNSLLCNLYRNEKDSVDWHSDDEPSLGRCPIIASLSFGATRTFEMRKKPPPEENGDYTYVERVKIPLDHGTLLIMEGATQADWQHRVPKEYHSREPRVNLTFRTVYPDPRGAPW
Description: intrinsic Trp fluorescence titration. As to conditions: apoprotein, 2 mM EDTA, no Fe(II)/2OG; N3-methylcytosine at position 9; Titration: 50 mM HEPES-KOH pH 7.8, 50 mM KCl, 10 mM MgCl2, 2 mM EDTA, 25 °C, 1 µM apoprotein; recombinant protein; protein details: N-terminal His-tag (pET28a); single-stranded DNA.

The exact form of at least one protein or probe is not confirmed. Tags and fusion partners may be left off the protein sequences shown.

For ACAGGATCCGGCATA [m3C], the Kd turned out to be 3.8 µM.
